# Results published in the supplement of paper PMC10735217.
# Where a name gives a salt, the structure may show the parent alone. The list shows a part of the results. Repeats in this data set agree poorly, so a single value says little.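 In a drug-repurposing library screen, luminescence reads luciferase driven by eight TEAD-binding elements, stably integrated into human kidney-derived cells. Compounds scoring over five robust Z scores above the plate mean are called hits.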
# Test system: HEK293A TEAD-LUC reporter
# Experiment: TEAD-luciferase reporter activity (YAP activation), robust Z score vs plate; higher = stronger YAP/TEAD activation
# Details: 24 h
Structure (SMILES),TEAD-luciferase reporter activity (compound concentration: 200 nM),TEAD-luciferase reporter activity (compound concentration: 2 uM),TEAD-luciferase reporter activity (compound concentration: 10 uM)
O=C(N[C@H]1CN2CCC1CC2)c1cnc2ccsc2c1O [Pumosetrag hydrochloride],inactive: -0.693,inactive: -0.661,inactive: -0.933
C[C@@H]1C[C@H]2[C@@H]3C[C@H](F)C4=CC(=O)C=C[C@]4(C)[C@@]3(F)[C@@H](O)C[C@]2(C)[C@@]1(OC(=O)C1C(C)(C)C1(C)C)C(=O)OCC#N,inactive: 1.5,inactive: 1.2,inactive: 0.475
CCC(N)Cc1cc(OC)c(C)cc1OC (centres undefined) [Dimoxamine],inactive: -0.0709,inactive: -0.486,inactive: -1.28
CS(=O)CCNC(=O)N(CCCl)N=O (centres undefined) [Perrimustine],inactive: -1.2,inactive: -0.0512,inactive: 1.49
NCC1(CC(=O)O)CC2CCCC21 (centres undefined),inactive: -1.44,inactive: -0.914,inactive: -1.01
CCOC(=O)C1(c2ccccc2)CCCN(C)CC1 (centres undefined),inactive: -1.48,inactive: 1.13,inactive: 1.04
CCC1(CC)C(=O)NC(=O)NC1=O [Barbital],inactive: 2.06,,inactive: -0.347
C=CCC1(CC(C)C)C(=O)NC(=O)NC1=O [Butalbital],inactive: -0.609,inactive: -1.21,inactive: -0.57
COCCC1CC2CN3CCc4c([nH]c5ccccc45)[C@](C(=O)OC)(C2)[C@H]13 (some centres undefined) [18-Methoxycoronaridine],inactive: 0.349,inactive: -0.78,inactive: 0.0478
COc1ccc(C[C@H]2C(=O)N[C@@H](C)C(=O)N(C)[C@H]3Cc4ccc(cc4)Oc4cc(ccc4OC)C[C@@H](C(=O)N[C@H](C)C(=O)N[C@@H](C)C(=O)N2C)N(C)C3=O)cc1,inactive: -0.646,inactive: -2.48,inactive: 1.04
Clc1ccccc1C1=NCc2nnc(C3CCCCC3)n2-c2sc(Br)cc21,inactive: 1.08,inactive: -0.247,inactive: 0.456
CCC[C@@H]1CC2=CC(=O)CC[C@]2(C)[C@H]2CC[C@@]3(C)[C@@H](CC[C@@]3(O)CCC(=O)[O-])[C@H]12 [oxprenoate potassium],inactive: 2.81,inactive: -1.01,inactive: 1.28
O=C1CN2CCOC2(c2ccccc2F)c2cc(Cl)ccc2N1CCCO (centres undefined),inactive: -0.622,inactive: -0.539,inactive: -0.634
O=C(Nc1ccccc1)N[C@H]1C(=O)N(CC23CC4CC(CC(C4)C2)C3)c2ccccc2N(c2ccccc2)C1=O,inactive: -1.16,inactive: -1.01,inactive: -0.323
CCC1CN2CCc3cc(OC)c(OC)cc3C2CC1CC1NCCc2cc(OC)c(OC)cc21 (centres undefined) [Emetine],inactive: -0.687,inactive: -3.28,inactive: 0.16
OC(c1ccccc1)(c1ccccc1)C1CCNCC1,inactive: -0.787,inactive: 1.79,inactive: 1.92
CC(=O)C(C)Oc1cc(N)c(Cl)cc1C(=O)NC1CN2CCC1CC2 (centres undefined),inactive: 1.57,inactive: -1.27,inactive: -0.295
CCCCCCC1(c2cc(O)c3c(c2)OC(C)(C)[C@@H]2CC[C@@H](O)C[C@@H]32)CCC1,inactive: -0.278,inactive: 0.399,inactive: 0.767
FC(F)(F)c1ccc(N2CCNCC2)nc1Cl,inactive: -0.587,inactive: -1.96,inactive: -0.0173

# Retrieved one by one from the entries so far, two records:
Structure (SMILES),TEAD-luciferase reporter activity (compound concentration: 200 nM),TEAD-luciferase reporter activity (compound concentration: 2 uM),TEAD-luciferase reporter activity (compound concentration: 10 uM)
CC(=O)C(C)Oc1cc(N)c(Cl)cc1C(=O)NC1CN2CCC1CC2 (centres undefined),inactive: 1.57,inactive: -1.27,inactive: -0.295
CCC1CN2CCc3cc(OC)c(OC)cc3C2CC1CC1NCCc2cc(OC)c(OC)cc21 (centres undefined) [Emetine],inactive: -0.687,inactive: -3.28,inactive: 0.16

# (cont.)

Structure (SMILES),TEAD-luciferase reporter activity (compound concentration: 200 nM),TEAD-luciferase reporter activity (compound concentration: 2 uM),TEAD-luciferase reporter activity (compound concentration: 10 uM)
O=C1CN=C(c2ccccc2)c2cc([N+](=O)[O-])ccc2N1,inactive: 0.56,,inactive: 0.15
O=C(C1CCCN1C(=O)NC1CCCC1)N1CCC(N2Cc3ccccc3C2=O)CC1 (centres undefined),inactive: -0.354,,inactive: -0.487
CCCN1CCC[C@@H]2Cc3n[nH]cc3C[C@H]21 [Quinpirole hydrochloride],inactive: -0.587,inactive: -0.457,inactive: -1.17
CC1Oc2ccccc2CC1N(C)C (centres undefined) [trebenzomine],inactive: -0.0529,inactive: -0.997,inactive: -1.15
CC(C(=O)c1ccc(N)cc1)N1CCCCCC1 (centres undefined),inactive: -0.282,inactive: -0.704,inactive: -2.39
NC(=O)OCCCc1ccccc1,inactive: -2.11,inactive: -0.224,inactive: 1.32
C[C@@H](NC(=O)[C@H](Cc1ccccc1)NC(=O)[C@@H](C)NC(=O)[C@@H](N)Cc1ccc(O)cc1)C(=O)N[C@@H](Cc1ccc(O)cc1)C(N)=O [Casokefamide],inactive: -0.414,inactive: -0.385,inactive: 0.0515
C=C(c1ccc(OC(C)(C)COC(=O)CCC(=O)O)cc1)C1COC2(OO1)C1CC3CC(C1)CC2C3 (centres undefined),inactive: -1.82,inactive: -1.16,inactive: 1.78
CNC(=O)Oc1ccc2c(c1)[C@]1(C)CCN(C)[C@@H]1N2C [physostigmine],inactive: -1.05,inactive: 0.282,inactive: 1.64
CCc1ccccc1NC(=O)Oc1ccc2c(c1)C1(C)CCN(C)OC1N2C (centres undefined),inactive: 1.81,inactive: -1.83,inactive: 1.21
CCC(=O)OC[C@@H](C(=O)O[C@@H]1C[C@@H]2[C@H]3O[C@H]3[C@H](C1)N2C)c1ccccc1,inactive: -1.29,inactive: -0.933,inactive: 0.467
O=C(Oc1ccc(Br)cc1)N1CCN2CCC1C2 (centres undefined),inactive: -0.675,inactive: 4.11,inactive: 0.905
CC(=O)Nc1ccc(OC[C@](C)(O)C(=O)Nc2ccc([N+](=O)[O-])c(C(F)(F)F)c2)cc1 [Andarine],inactive: -0.766,inactive: -1.44,inactive: 2.7
COc1ccccc1C(=O)N1CCCC1C(=O)N1CCC(N2CCCC2=O)CC1 (centres undefined),inactive: -2.3,,inactive: 0.663
CCN1C(=O)OC(C)(C)C1=O,inactive: -1.04,inactive: -1.69,inactive: 1.51
CCC1(CC)C(=O)C=CNC1=O,inactive: -0.327,inactive: -1.11,inactive: 1.47
CCN(CC)CCN1C(=O)[C@@](O)(c2ccccc2Cl)c2c1cc(C(N)=O)cc2C(F)(F)F,inactive: 1.17,inactive: -1.55,inactive: 0.451
C[C@]12CC[C@H](O)CC1=CC[C@@H]1[C@@H]2CC[C@]2(C)C(=O)CC[C@@H]12 [Prasterone],,inactive: 0.19,
C[C@]12CC[C@H](O)CC1=CC[C@@H]1[C@@H]2CC[C@]2(C)C(=O)CC[C@@H]12,inactive: 1.71,,inactive: -0.409

Structure (SMILES),TEAD-luciferase reporter activity (compound concentration: 200 nM),TEAD-luciferase reporter activity (compound concentration: 2 uM),TEAD-luciferase reporter activity (compound concentration: 10 uM)
CCCN1CCCC2c3cccc(O)c3OCC21 (centres undefined),inactive: -0.0476,inactive: -0.481,inactive: -1.86
COC[C@H]1OC(=O)c2coc3c2[C@@]1(C)C1=C(C3=O)[C@@H]2CCC(=O)[C@@]2(C)C[C@H]1OC(C)=O [Wortmannin],inactive: 0.445,inactive: -2.08,inactive: 0.687
C=CCN1CCC2(C)c3cc(O)ccc3CC1C2C (centres undefined),inactive: -0.0748,inactive: -0.125,inactive: 0.127
Cc1cc(N(CCOS(C)(=O)=O)CCOS(C)(=O)=O)ccc1C=O,inactive: 0.683,inactive: -1.06,inactive: 0.713
O=C(N[C@H]1CN2CCC1CC2)c1cc2cccc(Cl)c2s1 [encenicline hydrochloride],inactive: -1.12,inactive: -1.11,inactive: -0.128
CCCN(CCC)C1CCc2cccc(CS(=O)(=O)NC)c2C1 (centres undefined),inactive: -0.941,inactive: -0.519,inactive: -0.452
CCCCCCC(C)(C)c1cc(O)c2c(c1)OC(C)(C)[C@H]1CC=C(CO)C[C@H]21 [Dexanabinol],inactive: -1.04,,inactive: 0.0203
CC[C@@H](C(N)=O)N1CCCC1=O [Levetiracetam],,inactive: -0.858,
CC[C@@H](C(N)=O)N1CCCC1=O,inactive: -0.142,,inactive: 0.64
CC1(C)[C@H](C=C(Cl)Cl)[C@H]1C(=O)OCc1c(F)c(F)cc(F)c1F,inactive: -0.981,inactive: 0.194,inactive: 2.5
CC12CCC3C4CCCC=C4CCC3C1CCC2O (centres undefined),inactive: -0.443,inactive: -0.712,inactive: -0.537
Clc1ccc(N2CCN(Cc3c[nH]c4ncccc34)CC2)cc1,inactive: -1.53,inactive: -1.18,inactive: 1.11
"Oc1ccc2c3c1OC1C(O)CCC4(O)C(C2)N(CC2CCC2)CCC314 (centres undefined) [nalbuphine, IS Pharma]",inactive: 0.46,inactive: 0.704,inactive: 4.2
CC(C)NCCc1ccccc1,inactive: 3.77,inactive: 3.2,inactive: 0.656
c1ccc2c(c1)Cc1sc(Cc3c[nH]cn3)nc1-2,inactive: -0.273,inactive: -0.131,inactive: 0.316
O=C(C1CCCN1C(=O)c1ccccc1Cl)N1CCC(N2Cc3ccccc3C2=O)CC1 (centres undefined),inactive: -0.51,,inactive: 0.101
Cc1ccc(-n2nccn2)c(C(=O)N2CCN(c3nc4cc(Cl)ccc4o3)CC[C@H]2C)c1 [Suvorexant],inactive: -1.9,inactive: 0.766,inactive: 2.9
CC(C)Cn1c(=O)cc(C(=O)O[C@@H]2C[C@H]3CC[C@@H](C2)N3C)c2ccccc21,inactive: -1.29,inactive: 0.917,inactive: 0.131
O=C1CC[C@H]2[C@H]3Cc4cccc(O)c4[C@@]2(CCN3CC2CC2)C1,inactive: 0.203,inactive: -0.646,inactive: -0.831
